PubChem BioAssay AID1259425, University of Nebraska Medical Center – 2018
Screen: 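Seek colon cancer weak points whose silencing resembles KSR1 loss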 (primary screen). System: HCT116 human colon cancer cells. Reagents: siRNA pool against human genes, 50 nM siRNA. Read-out: 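After 50 nM siRNA pool, branched-DNA assay measures six marker transcripts per well, minus blank, normalised to the geometric mean of two housekeeping transcripts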. Direction: BNIP3L mRNA: higher = more BNIP3L transcript after knockdown.
The whole screen tested about 14,000 reagents; this is an unselected part. Further read-outs or replicates are left out here. No sequences are given here. The record does not give: the time to read-out.

{"gene symbol": "USP25", "BNIP3L mRNA, set 1": 0.111}
{"gene symbol": "DLG3", "BNIP3L mRNA, set 1": 0.0727}
{"gene symbol": "SLC6A5", "BNIP3L mRNA, set 1": 0.122}
{"gene symbol": "UBE4A", "BNIP3L mRNA, set 1": 0.0681}
{"gene symbol": "PDCL", "BNIP3L mRNA, set 1": 0.273}
{"gene symbol": "SRPX2", "BNIP3L mRNA, set 1": 0.224}
{"gene symbol": "NEMF", "BNIP3L mRNA, set 1": 0.0856}
{"gene symbol": "ATL1", "BNIP3L mRNA, set 1": 0.126}
{"gene symbol": "MGST2", "BNIP3L mRNA, set 1": 0.0922}
{"gene symbol": "SSX2", "BNIP3L mRNA, set 1": 0.0455}
{"gene symbol": "COL12A1", "BNIP3L mRNA, set 1": 0.0509}
{"gene symbol": "ELF2", "BNIP3L mRNA, set 1": 0.0921}
{"gene symbol": "ZFTRAF1", "BNIP3L mRNA, set 1": 0.128}
{"gene symbol": "TPP2", "BNIP3L mRNA, set 1": 0.142}
{"gene symbol": "FAM107B", "BNIP3L mRNA, set 1": 0.0574}
{"gene symbol": "RPP38", "BNIP3L mRNA, set 1": 0.102}
{"gene symbol": "SLC16A1", "BNIP3L mRNA, set 1": 0.0763}
{"gene symbol": "DAPK3", "BNIP3L mRNA, set 1": 0.105}
{"gene symbol": "STAP2", "BNIP3L mRNA, set 1": 0.14}

Targets listed so far whose gene name starts with U or u:
{"gene symbol": "USP25", "BNIP3L mRNA, set 1": 0.111}
{"gene symbol": "UBE4A", "BNIP3L mRNA, set 1": 0.0681}
